Reference: US20130053305A1 (UNIVERSIDAD DE BARCELONA, priority 2010, published 2013)

Legend:
[1] = general procedure: Fmoc solid-phase peptide synthesis; Fmoc-Rink resin (0.47 mmole/g); Clorotrytil chloride resin (0.6 mmole/g) for Example 6; HBTU/DIEA; settings: whole synthesis; for final HPLC purity: area integration of HPLC trace
[2] = general procedure: Fmoc solid-phase peptide synthesis; chlorotrityl chloride resin; HBTU/DIEA; settings: whole synthesis
[3] = scale of the general procedure 0.282 mmole (Example 1), 0.48 mmole (Example 6)

Substance	final HPLC purity [1, 3]	also measured
Nonanoyl-Arg-Thr-Dab-Cyclo(4-10)[Dab-Dab-DPhe-Leu-Arg-Dab-Thr]	>91'8%	
Nonanoyl-Arg-Thr-Dab-Cyclo(S—S)[Cys-Dab-DLeu-Thr-Arg-Dab-Cys]	>95%	
Nonanoyl-Arg-Thr-Dab-Cyclo(S—S)[Cys-Dab-DPhe-Gly-Arg-Dab-Cys]	>95%	
Nonanoyl-Arg-Thr-Dab-Cyclo(S—S)[Cys-Dab-DPhe-Leu-Arg-Dab-Cys]-Leu-Met-Trp-Trp-Met-Leu	>95%	
Nonanoyl-Arg-Thr-Dab-Cyclo(S—S)[Cys-Dab-DPhe-Leu-Arg-Dab-DCys]	>95%	
Nonanoyl-Arg-Thr-Dab-Cyclo(S—S)[Cys-Dab-DPhe-Thr-Arg-Dab-Cys]	>95%	
Nonanoyl-Arg-Thr-Dab-Cyclo(S—S)[Cys-Dab-Gly-Leu-Arg-Dab-Cys]	>95%	
Nonanoyl-Arg-Thr-Dab-Cyclo(S—S)[Cys-Dab-Phe-Leu-Arg-Dab-Cys]	>95%	
nonanoyl-Arg-Thr-Dab-cyclo(4-10)[Dab-Dab-DPhe-Leu-Arg-Dab-Thr]		crude mass [2]: 130 mg; isolated mass [1]: 11 mg; crude yield [1, 3]: 21%
